{"sequences": {"note": "Chains of the proteins cited; added tags and fusions are not shown.", "UniProt O35718": "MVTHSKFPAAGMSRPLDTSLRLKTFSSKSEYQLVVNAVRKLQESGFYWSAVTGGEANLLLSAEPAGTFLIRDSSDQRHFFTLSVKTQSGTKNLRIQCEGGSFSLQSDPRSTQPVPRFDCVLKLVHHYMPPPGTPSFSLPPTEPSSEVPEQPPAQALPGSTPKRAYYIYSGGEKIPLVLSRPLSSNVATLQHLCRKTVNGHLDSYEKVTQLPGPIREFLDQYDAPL"}, "source": "paper PMC7214468", "binders": {"B1": {"name": "Flag-CUEDC2 (CUE domain-containing 2) (protein, UniProt Q9CXX9 1-284)", "chain": "MELERIVGSALLTFVQAHLPEADLSGLDEVIFSYVLGVLEDLGPSGPSEENFDMEAFTEMMEAYVPGFAHIPRGIIGDMMQKLSVQLSDARNKENLHPQSSCVQGQVPIFPETPRQAEKLEEESRPPAAPGNTLDEAAAAEELPGVDVLLEVFPTCSMEQAQWVLAKARGDLEEAVHMLVEGKEEGPPGWDGPSQDLPRRLRGPQKDDLKSFILQKYMMVDRAEDQKTHRPMAPKEAPKKLIRYIDNQVVSTKGERFKDVRNPEAEEMKATYINLKPARKYRFH"}}, "biological_target": "HA-SOCS3 (suppressor of cytokine signaling 3) (UniProt O35718)", "test": "co-IP; HEK293T cells co-transfected with the indicated plasmids; lysates precleared with protein G-agarose, incubated with anti-HA overnight at 4 °C, beads washed three times with lysis buffer; western blotting", "note": "No constants are given. Whether binding was seen depends on the method and setting. Binding seen in cells or lysates may run through a third protein. Some binding calls cover weakened binding; strength is not graded here. Sequences can lack the tags named with a protein."}
{"binder": "B1", "values": [{"measurement": "binding", "result": "binds"}]}
